{"source": "PubChem BioAssay AID2685", "about": "(National Center for Advancing Translational Sciences (NCATS), 2010)", "note": "About 2,100 (0.66%) of roughly 320,000 compounds were called active. The shares of active, inactive and inconclusive entries below differ from those in the screen. Calls come from the whole dose curve; as a rule, active = well fitted inhibition curve with a large enough effect in the signal ratio, with a control signal flat (not every such curve was filed as active); inconclusive = small, poorly fitted or top-dose-only effect, or effect the other way, or a change in a side signal; inactive = flat fitted curve, though single readings scatter; the % refers to the signal ratio. Potencies beside an inconclusive call are fits to weak or partial responses and may not hold up. % is set by controls: 0 for no effect and ±100 for the full control effect; potency is the fitted concentration of half-maximal effect."}
{"assay": "qHTS Assay for Lipid Storage Modulators in Drosophila S3 Cells", "conditions": "BODIPY lipid droplet fluorescence, 18-24 h, cells fed with added oleic acid; lipid storage change, negative = inhibition: at 46.1 µM (top of the series) unless noted", "summary_of_the_method": "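Laser-scanning cytometry quantifies lipid droplet accumulation (500–530 nm total intensity; droplet/cell object ratio) in oleic acid-fed (400 uM added) Drosophila S3 cells treated with a concentration series. 20 uM Triacsin C defined 100% inhibition.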"}
{"smiles": "CCCCOc1ccc(CONS(=O)(=O)c2ccc(NC(C)=O)cc2)cc1Cl", "Potency": "inconclusive: 6.51 µM [activator, single point]"}
{"smiles": "O=C(NCCCN1CCCCC1)c1ccc(CS(=O)c2ccc(F)cc2)o1", "note": "(stereo not drawn)", "outcome": "inactive [at 46.1 µM]"}
{"smiles": "Cc1ccc(C(=O)CSc2nc3c([nH]2)c(=O)n(C)c(=O)n3C)cc1", "lipid storage change, negative = inhibition": "inconclusive: -5.48%"}
{"smiles": "Cc1ccc(-c2csc(NC(=O)CCNC(=O)c3ccc(Cl)cc3)n2)cc1", "lipid storage change, negative = inhibition": "inconclusive: -61%"}
{"smiles": "COc1ccc(OCCn2cncn2)cc1", "Potency": "inconclusive: 0.0073 µM [falling, full curve, poor fit]"}
{"smiles": "CC(=O)c1ccc(S(=O)(=O)Nc2ccc(C(=O)N3CCC3)cc2)cc1", "lipid storage change, negative = inhibition": "inconclusive"}
{"smiles": "CCOCCOc1cccc(C(=O)NC(C)c2ccc3ccccc3c2)c1", "note": "(stereo not drawn)", "Potency": "active: 13 µM"}
{"smiles": "Cc1ccc(SCCN2CCC(C(C)(C)C)CCC2=O)cc1", "note": "(stereo not drawn)", "lipid storage change, negative = inhibition": "inconclusive: -50.6%"}
{"smiles": "COc1ccccc1CC(=O)NNC(=O)c1ccc(C(C)(C)C)cc1", "lipid storage change, negative = inhibition": "inconclusive: 20.2%"}
{"smiles": "Cc1cc(NC(=O)CCN2CCCCC2)ccc1Br", "lipid storage change, negative = inhibition": "inconclusive: -45.1%"}
{"smiles": "Cc1cc(=O)[nH]c(SCC(=O)Nc2cccc(S(=O)(=O)N3CCOCC3)c2)n1", "Potency": "inconclusive: 2.59 µM [activator, full curve]"}
{"smiles": "O=C(COC(=O)c1cc([N+](=O)[O-])ccc1NCCO)Nc1ccc2c(c1)OCO2", "lipid storage change, negative = inhibition": "inconclusive: 24.1%"}
{"smiles": "CCC(C(=O)NC1CCCC1)N(Cc1ccco1)C(=O)CNS(=O)(=O)c1ccccc1", "note": "(stereo not drawn)", "lipid storage change, negative = inhibition": "inconclusive: -70.3%"}
{"smiles": "CCN(CC)S(=O)(=O)c1cccc(NC(=O)CC2CCCC2)c1", "lipid storage change, negative = inhibition": "inconclusive: 24.2%"}
{"smiles": "CN(C)S(=O)(=O)c1ccc(NC(=O)CCNC(=O)c2ccc([N+](=O)[O-])cc2)cc1", "lipid storage change, negative = inhibition": "inconclusive: 18.7%"}
{"smiles": "c1ccc2c(-n3cnnn3)cccc2c1", "lipid storage change, negative = inhibition": "inconclusive: 22%"}
{"smiles": "CCCOC(=O)c1ccc(NC(=O)C2C3C=CC(O3)C2C(=O)O)cc1", "note": "(stereo not drawn)", "lipid storage change, negative = inhibition": "inconclusive: -5.38%"}
{"smiles": "CCOC(=O)c1[nH]ncc1CN1CCC(Cc2cccc(OC)c2)(C(=O)OCC)CC1", "lipid storage change, negative = inhibition": "inconclusive: -2.52%"}
{"smiles": "O=[N+]([O-])c1cc(S(=O)(=O)N2CCCC2)ccc1OCc1ccccc1", "lipid storage change, negative = inhibition": "inconclusive: -134%"}
{"smiles": "CCC(c1nnnn1CCOC)N1CCN(Cc2ccccc2)CC1", "note": "(stereo not drawn)", "lipid storage change, negative = inhibition": "inconclusive: -43.5%"}
{"smiles": "Cc1cccc(N2C(=NC(=O)c3ccccc3)SC3CS(=O)(=O)CC32)c1", "note": "(stereo not drawn)", "lipid storage change, negative = inhibition": "inconclusive: -92.1%"}
{"smiles": "O=C1NN(c2ccccc2)C(=O)/C1=C/c1ccc(Sc2cccc3ccccc23)o1", "Potency": "inconclusive: 29.1 µM [falling, single point]"}
{"smiles": "Cn1cc(/C=C/c2cc[n+](C)cc2)c2cc(F)ccc21", "Potency": "active: 25.9 µM"}
{"smiles": "COCn1c(COc2ccccc2)nc2ccccc21", "lipid storage change, negative = inhibition": "inconclusive: 13.4%"}
{"smiles": "Cc1ccc(C(=O)NNC(=O)c2ccncc2)cc1[N+](=O)[O-]", "lipid storage change, negative = inhibition": "inconclusive: 12.5%"}
{"smiles": "COc1ccc(CNC(=O)c2cc3c(s2)CS(=O)C3)cc1", "note": "(stereo not drawn)", "lipid storage change, negative = inhibition": "inconclusive: 35.7%"}
{"smiles": "CC1CCc2sc(C(=O)NCC3CCCO3)cc2C1", "note": "(stereo not drawn)", "Potency": "inconclusive: 5.8 µM [falling, single point]"}
{"smiles": "COc1ccc(N2C(=O)CN(Cc3ccc(OC)c(OC)c3)C2=S)cc1", "lipid storage change, negative = inhibition": "inactive: -2.11%"}
{"smiles": "Cc1ccc(NC(=O)C2CCN(C(=O)c3ccc(Cl)cc3)CC2)nc1", "lipid storage change, negative = inhibition": "inconclusive: 21.6%"}
{"smiles": "CCOc1ccccc1OCCCC(=O)N(C)CC(=O)Nc1cc(C)ccc1C", "Potency": "inconclusive: 3.26 µM [activator, single point]"}
{"smiles": "NS(=O)(=O)c1ccc(NC(=O)c2cccc(N3C(=O)c4ccccc4C3=O)c2)cc1", "Potency": "inconclusive: 0.291 µM [activator, full curve]"}
{"smiles": "CCc1nc2sc3ccccc3c(=O)c2c(=O)n1Cc1ccc(OC)cc1", "Potency": "inconclusive: 29.1 µM [falling, single point]"}
{"smiles": "O=C(c1ccc(F)cc1)N1CCN(S(=O)(=O)c2ccc(Br)cc2)CC1", "outcome": "inactive [at 46.1 µM]"}
{"smiles": "CC(OC(=O)CN1C(=O)c2ccccc2C1=O)C(=O)NC1CCCCC1", "note": "(stereo not drawn)", "lipid storage change, negative = inhibition": "inconclusive: -100%"}
{"smiles": "COCCn1nnnc1C(c1ccccc1OC)N1CCN(C(=O)c2ccco2)CC1", "note": "(stereo not drawn)", "lipid storage change, negative = inhibition": "inconclusive: -10%"}
{"smiles": "O=C(CN1CCN(Cc2ccc(F)cc2)C1=O)NCc1cccs1", "Potency": "inconclusive: 16.4 µM [falling, single point]"}
{"smiles": "Cn1c(=O)n(C)c(=O)n(CC(=O)N2CCCCC2)c1=O", "Potency": "inconclusive: 29.1 µM [cytotoxic, single point]"}
{"smiles": "O=C1COc2ccc(C(=O)C[n+]3cccc(O)c3)cc2N1", "Potency": "inconclusive: 29.1 µM [falling, single point]"}
{"smiles": "Cc1cccc(NC(=O)CNC(=O)c2cccs2)n1", "lipid storage change, negative = inhibition": "inconclusive"}
{"smiles": "CCc1noc(C)c1C(=O)OCC(=O)Nc1ncc(Cl)cc1Cl", "lipid storage change, negative = inhibition": "inconclusive: 14.1%"}
{"smiles": "Cc1ccc(OC(C)C(=O)N(C)c2ccccc2)c([N+](=O)[O-])n1", "note": "(stereo not drawn)", "Potency": "inconclusive: 14.6 µM [activator, partial curve]"}
{"smiles": "O=C(NCCCN1CCCC1=O)c1cccc(Oc2ccccc2)c1", "lipid storage change, negative = inhibition": "inconclusive: -13.1% [at 9.22 µM]"}
{"smiles": "CC(=O)Nc1ccc(NC(=O)CCC(=O)OCC(=O)c2ccc(F)cc2)cc1", "lipid storage change, negative = inhibition": "inconclusive: 125%"}
{"smiles": "COc1ccc(NC2CCCN(C(=O)c3ccccc3N3CCOCC3)C2)cc1OC", "note": "(stereo not drawn)", "lipid storage change, negative = inhibition": "inconclusive: 68.2%"}
{"smiles": "Cc1cccc(OCC(=O)NC(=S)Nc2ccccc2N2CCOCC2)c1C", "lipid storage change, negative = inhibition": "inconclusive: 14.9%"}
{"smiles": "CCNC(=O)C1CCCN1S(=O)(=O)c1ccc2ccccc2c1", "note": "(stereo not drawn)", "lipid storage change, negative = inhibition": "inconclusive: 52.1%"}
{"smiles": "CCn1cc(CNC(=O)/C=C/c2ccc([N+](=O)[O-])cc2)cn1", "lipid storage change, negative = inhibition": "inactive: -8.69%"}
{"smiles": "CCOC(=O)N/N=C1\\CC(C)CC(C)(C)C1", "note": "(stereo not drawn)", "lipid storage change, negative = inhibition": "inconclusive: 14.4%"}
{"smiles": "CCCn1c(NC(=O)c2ccco2)nc2ccccc21", "outcome": "inactive [at 46.1 µM]"}
{"smiles": "COc1cccc(/C=N/n2c(CO)nc3ccccc32)c1OC", "lipid storage change, negative = inhibition": "inconclusive: 14%"}
{"smiles": "CC1(C)CC(=O)c2c(O)cc(O)cc2O1", "lipid storage change, negative = inhibition": "inconclusive: -64.3%"}
{"smiles": "O=C1NCCCC1C(=O)N/N=C/c1cccc(O)c1", "note": "(stereo not drawn)", "lipid storage change, negative = inhibition": "inconclusive: 3.57%"}
{"smiles": "Cc1cccc(C(=O)OC(C)C(=O)N2CCc3ccccc3C2)c1C", "note": "(stereo not drawn)", "Potency": "inconclusive: 58 µM [falling, single point]"}
